Results: article PMC7909379

Target: TIR-domain-containing adapter-inducing interferon-β (TRIF) (rat (endogenous in P rat nucleus accumbens))
Test: co-IP; protein extracts from the NAc of male and female P rats given 3α,5α-THP (15 mg/kg, IP, 30 min) or vehicle; immunoprecipitated with antibody to MyD88 or TRIF, immunoblotted for TLR4 or TLR7 (TLR7 in females only); normal IgG as immunoprecipitation control

- binding: binds
B1: toll-like receptor 4 (TLR4) (receptor, UniProt Q9QX05 26-835)
chain: NPCIEVLPNITYQCMDQNLSKIPHDIPYSTKNLDLSFNPLKILRSYSFTNFSQLQWLDLSRCEIETIEDKAWHGLNQLSTLVLTGNPIKSFSPGSFSGLTNLENLVAVETKMTSLEGFHIGQLISLKKLNVAHNLIHSFKLPEYFSNLTNLEHVDLSYNYIQTISVKDLQFLRENPQVNLSLDLSLNPIDSIQAQAFQGIRLHELTLRSNFNSSNVLKMCLQNMTGLHVHRLILGEFKNERNLESFDRSVMEGLCNVSIDEFRLTYINHFSDDIYNLNCLANISAMSFTGVHIKHIADVPRHFKWQSLSIIRCHLKPFPKLSLPFLKSWTLTTNREDISFGQLALPSLRYLDLSRNAMSFRGCCSYSDFGTNNLKYLDLSFNGVILMSANFMGLEELEYLDFQHSTLKKVTEFSVFLSLEKLLYLDISYTNTKIDFDGIFLGLISLNTLKMAGNSFKDNTLSNVFTNTTNLTFLDLSKCQLEQISRGVFDTLYRLQLLNMSHNNLLFLDPSHYKQLYSLRTLDCSFNRIETSKGILQHFPKSLAVFNLTNNSVACICEYQNFLQWVKDQKMFLVNVEQMKCASPIDMKASLVLDFTNSTCYIYKTIISVSVVSVLVVATVAFLIYHFYFHLILIAGCKKYSRGESIYDAFVIYSSQNEDWVRNELVKNLEEGVPRFQLCLHYRDFIPGVAIAANIIQEGFHKSRKVIVVVSRHFIQSRWCIFEYEIAQTWQFLSSRSGIIFIVLEKVEKSLLRQQVELYRLLSRNTYLEWEDNALGRHIFWRRLKKALLDGKALNPDETSEEEQEATTLT

No constants are given. Whether binding was seen depends on the method and setting. Binding seen in cells or lysates may run through a third protein. A result given as binding can be weak or reduced; the word gives no strength.
